Values of other authors as cited in patent US9630929B2, “Benzenesulfonamide compounds and their use as therapeutic agents” (XENON PHARMACEUTICALS INC., priority 2011, dated 2017).

Details: lidocaine administered topically (Lidoderm patch); cited from earlier work

Structure (SMILES): CCN(CC)CC(=O)Nc1c(C)cccc1C [lidocaine]
- plasma concentrations: about 1 μM
